In US20260234236A1 (INTERVET, published 2026):
These are yes or no findings as the source states them, for the method shown. Some entries that bind do so weakly or less than the wild type.

Target: T1, canine IL-13 receptor alpha 2 (cIL-13R alpha 2) (canine) (UniProt Q95LF0)
T1 sequence: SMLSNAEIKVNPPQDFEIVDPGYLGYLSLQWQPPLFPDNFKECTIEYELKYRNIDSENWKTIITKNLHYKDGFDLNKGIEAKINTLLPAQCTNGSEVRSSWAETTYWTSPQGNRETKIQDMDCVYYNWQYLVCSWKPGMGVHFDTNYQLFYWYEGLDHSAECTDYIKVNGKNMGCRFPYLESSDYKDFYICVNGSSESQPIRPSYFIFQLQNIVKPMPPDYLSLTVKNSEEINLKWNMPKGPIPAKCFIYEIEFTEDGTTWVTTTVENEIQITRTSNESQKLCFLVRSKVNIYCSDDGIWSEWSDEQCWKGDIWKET
Test: summary of the examples; assay not described

B1: Recombinant canine IL-13 (R&D Systems, Catalog: 5894-CL/CF) (ligand, UniProt Q9N0W9 19-131, looked up)
chain: SPSPVTPSPTLKELIEELVNITQNQASLCNGSMVWSVNLTAGMYCAALESLINVSDCSAIQRTQRMLKALCSQKPAAGQISSERSRDTKIEVIQLVKNLLTYVRGVYRHGNFR
For B1, the binding was “binds”.
